The term inhibition denotes the drop in the measured response relative to a control, in per cent. Low readings indicate a weak effect, high ones a strong effect.

Protein sequences, listed by entry. Tags and fused reporters are not part of them.
UniProt Q13936, whole entry: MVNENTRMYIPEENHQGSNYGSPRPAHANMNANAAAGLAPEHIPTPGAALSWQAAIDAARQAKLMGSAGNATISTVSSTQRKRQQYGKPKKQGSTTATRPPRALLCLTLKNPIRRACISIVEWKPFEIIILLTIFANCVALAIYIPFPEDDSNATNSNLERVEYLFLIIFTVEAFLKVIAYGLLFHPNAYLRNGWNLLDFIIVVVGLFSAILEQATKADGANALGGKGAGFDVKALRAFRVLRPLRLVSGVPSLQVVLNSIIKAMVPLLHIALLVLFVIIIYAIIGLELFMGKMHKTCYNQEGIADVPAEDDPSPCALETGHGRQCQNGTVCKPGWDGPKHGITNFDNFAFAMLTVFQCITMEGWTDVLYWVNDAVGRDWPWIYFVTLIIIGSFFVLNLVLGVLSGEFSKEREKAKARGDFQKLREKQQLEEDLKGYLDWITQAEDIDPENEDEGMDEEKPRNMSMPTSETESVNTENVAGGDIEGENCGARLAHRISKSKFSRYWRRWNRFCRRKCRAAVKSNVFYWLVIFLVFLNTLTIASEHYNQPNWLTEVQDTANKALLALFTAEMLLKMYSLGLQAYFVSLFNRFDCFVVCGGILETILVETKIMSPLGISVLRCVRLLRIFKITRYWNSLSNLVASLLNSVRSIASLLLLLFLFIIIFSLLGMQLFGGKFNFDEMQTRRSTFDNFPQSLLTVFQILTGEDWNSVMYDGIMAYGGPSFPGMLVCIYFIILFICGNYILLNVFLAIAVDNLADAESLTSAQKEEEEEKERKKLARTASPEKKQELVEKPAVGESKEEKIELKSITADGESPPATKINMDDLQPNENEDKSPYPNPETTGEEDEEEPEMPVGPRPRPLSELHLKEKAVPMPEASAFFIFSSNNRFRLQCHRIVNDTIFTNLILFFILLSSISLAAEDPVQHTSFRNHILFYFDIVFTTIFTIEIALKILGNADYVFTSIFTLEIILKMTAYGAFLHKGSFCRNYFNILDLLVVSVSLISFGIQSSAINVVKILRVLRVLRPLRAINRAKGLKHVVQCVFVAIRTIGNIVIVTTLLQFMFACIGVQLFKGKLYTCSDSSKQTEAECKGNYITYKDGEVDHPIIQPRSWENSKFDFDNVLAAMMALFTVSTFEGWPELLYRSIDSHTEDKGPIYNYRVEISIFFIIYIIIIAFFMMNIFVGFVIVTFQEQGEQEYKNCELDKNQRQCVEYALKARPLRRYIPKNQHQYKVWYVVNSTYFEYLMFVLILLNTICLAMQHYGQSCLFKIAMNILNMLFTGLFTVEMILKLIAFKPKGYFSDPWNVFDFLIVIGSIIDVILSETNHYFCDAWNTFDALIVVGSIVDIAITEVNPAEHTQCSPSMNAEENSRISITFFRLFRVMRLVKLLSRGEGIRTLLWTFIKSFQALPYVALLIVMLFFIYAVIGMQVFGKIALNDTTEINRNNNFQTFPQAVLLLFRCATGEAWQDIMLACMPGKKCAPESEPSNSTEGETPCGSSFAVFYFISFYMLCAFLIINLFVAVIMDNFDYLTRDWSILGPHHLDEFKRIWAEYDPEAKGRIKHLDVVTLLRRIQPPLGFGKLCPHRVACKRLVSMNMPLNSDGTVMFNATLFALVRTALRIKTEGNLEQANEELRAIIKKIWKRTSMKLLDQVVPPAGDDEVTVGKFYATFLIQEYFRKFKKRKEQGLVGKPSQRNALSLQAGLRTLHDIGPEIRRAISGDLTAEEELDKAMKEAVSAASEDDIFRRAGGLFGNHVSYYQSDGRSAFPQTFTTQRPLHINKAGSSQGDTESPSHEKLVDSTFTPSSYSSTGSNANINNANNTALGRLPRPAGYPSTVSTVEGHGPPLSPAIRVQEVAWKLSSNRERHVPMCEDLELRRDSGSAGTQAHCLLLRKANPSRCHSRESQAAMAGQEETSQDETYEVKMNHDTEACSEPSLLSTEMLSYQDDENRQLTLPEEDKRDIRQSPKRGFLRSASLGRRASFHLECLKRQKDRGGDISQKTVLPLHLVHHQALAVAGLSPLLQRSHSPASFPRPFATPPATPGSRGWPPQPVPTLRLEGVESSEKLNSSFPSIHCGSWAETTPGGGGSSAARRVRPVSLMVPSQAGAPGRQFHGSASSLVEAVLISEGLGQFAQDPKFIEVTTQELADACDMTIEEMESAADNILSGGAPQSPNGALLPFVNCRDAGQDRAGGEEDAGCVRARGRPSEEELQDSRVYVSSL

This series deals with CaV1.2 (ICaL) (Homo sapiens, UniProt Q13936). Put plainly: in vitro. Particulars: pH 7.4. As to the method:
and CiPA Initiative Studies
=============================================================
In vitro studies on other ion channels […]
through NaV1.5, KV4.3, KV7.1/mink, Kir2.1, KV1.5, CaV1.2 and CaV3.2 channels.
35-mm dish culture in the conditions mentioned in standard cell culture conditions. Experiments were performed with a cell density enabling isolated cells for patch clamping. Cells were continuously superfused with extracellular medium (1-2 mL∙minute-1) at room temperature.
D-glucose 10, HEPES 10 and the final pH adjusted to 7.4±0.02 with NaOH for recording NaV1.5, KV4.3, KV7.1/mink, Kir2.1, KV1.5 and CaV3.2 currents. It was (in mM): NaCl 110, KCl 4, BaCl2 20, MgCl2 1, D-glucose 20, HEPES 10 and the final pH adjusted to 7.4 ± 0.02 with NaOH for recording the CaV1.2 current. Compositions of the intracellular solution to fill the pipette are […]
After formation of a Gigaohm seal between the patch electrodes and individual cells (pipette resistance range: 2.0 MΩ - 7.0 MΩ; seal resistance range: > 1 GΩ) the cell membrane across the pipette tip was ruptured to assure electrical access to the cell interior (whole-cell patch-configuration). […] As soon as a stable seal was established outward tail currents were measured upon pulses described in the Table S2. If current density was judged to be too low for measurement, another cell was recorded. […]

`COC(=O)C1=C(C)NC(C)=C(C(=O)OC)C1c1ccccc1[N+](=O)[O-]` [Nifedipine, reference compound] showed an inhibition at 1 µM of 88%.
